This is an account of results in article PMC8742403.

By UniProt entry, the sequences of proteins in these tests, tags left out.
UniProt P35222: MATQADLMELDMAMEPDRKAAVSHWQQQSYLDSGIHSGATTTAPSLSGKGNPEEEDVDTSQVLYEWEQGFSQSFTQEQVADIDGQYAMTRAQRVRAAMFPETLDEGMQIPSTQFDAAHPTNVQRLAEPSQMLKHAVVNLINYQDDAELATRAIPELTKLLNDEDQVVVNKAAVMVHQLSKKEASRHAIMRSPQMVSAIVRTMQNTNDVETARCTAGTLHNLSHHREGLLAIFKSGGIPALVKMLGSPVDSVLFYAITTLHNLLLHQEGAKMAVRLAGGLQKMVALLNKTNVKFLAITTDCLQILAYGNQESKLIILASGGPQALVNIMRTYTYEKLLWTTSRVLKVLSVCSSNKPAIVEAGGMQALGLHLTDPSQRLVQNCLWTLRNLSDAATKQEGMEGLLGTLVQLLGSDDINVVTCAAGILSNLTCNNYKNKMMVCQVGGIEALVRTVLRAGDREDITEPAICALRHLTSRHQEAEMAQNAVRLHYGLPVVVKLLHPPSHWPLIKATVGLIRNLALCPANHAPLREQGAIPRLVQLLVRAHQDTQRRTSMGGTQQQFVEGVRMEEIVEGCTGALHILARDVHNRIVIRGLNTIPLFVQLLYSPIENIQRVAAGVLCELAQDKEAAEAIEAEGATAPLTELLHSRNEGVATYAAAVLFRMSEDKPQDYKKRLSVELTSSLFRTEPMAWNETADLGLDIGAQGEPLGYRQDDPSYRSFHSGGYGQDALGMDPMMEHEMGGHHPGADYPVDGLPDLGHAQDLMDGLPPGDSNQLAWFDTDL
UniProt Q16665: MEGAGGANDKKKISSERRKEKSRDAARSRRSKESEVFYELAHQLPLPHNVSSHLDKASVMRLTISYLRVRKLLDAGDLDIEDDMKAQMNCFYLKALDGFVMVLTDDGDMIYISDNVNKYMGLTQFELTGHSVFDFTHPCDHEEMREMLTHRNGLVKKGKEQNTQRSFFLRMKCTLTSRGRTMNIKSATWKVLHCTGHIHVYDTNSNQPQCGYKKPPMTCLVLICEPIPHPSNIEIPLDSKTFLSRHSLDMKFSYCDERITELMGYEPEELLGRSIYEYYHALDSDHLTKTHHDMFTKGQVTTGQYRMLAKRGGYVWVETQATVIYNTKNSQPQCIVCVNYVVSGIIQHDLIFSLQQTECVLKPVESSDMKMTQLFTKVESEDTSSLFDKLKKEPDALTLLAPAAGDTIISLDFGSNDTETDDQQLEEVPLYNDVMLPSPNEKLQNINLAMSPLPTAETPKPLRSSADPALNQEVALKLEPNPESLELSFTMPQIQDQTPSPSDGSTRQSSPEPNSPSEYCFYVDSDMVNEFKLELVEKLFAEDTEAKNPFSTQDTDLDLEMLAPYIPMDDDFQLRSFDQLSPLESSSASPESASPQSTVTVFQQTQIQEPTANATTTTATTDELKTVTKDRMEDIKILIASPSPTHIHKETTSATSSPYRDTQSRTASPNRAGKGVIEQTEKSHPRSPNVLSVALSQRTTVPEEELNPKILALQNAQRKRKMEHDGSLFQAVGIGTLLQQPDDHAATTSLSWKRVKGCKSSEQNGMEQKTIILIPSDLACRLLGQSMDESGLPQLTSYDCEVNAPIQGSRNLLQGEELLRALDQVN
UniProt P36402: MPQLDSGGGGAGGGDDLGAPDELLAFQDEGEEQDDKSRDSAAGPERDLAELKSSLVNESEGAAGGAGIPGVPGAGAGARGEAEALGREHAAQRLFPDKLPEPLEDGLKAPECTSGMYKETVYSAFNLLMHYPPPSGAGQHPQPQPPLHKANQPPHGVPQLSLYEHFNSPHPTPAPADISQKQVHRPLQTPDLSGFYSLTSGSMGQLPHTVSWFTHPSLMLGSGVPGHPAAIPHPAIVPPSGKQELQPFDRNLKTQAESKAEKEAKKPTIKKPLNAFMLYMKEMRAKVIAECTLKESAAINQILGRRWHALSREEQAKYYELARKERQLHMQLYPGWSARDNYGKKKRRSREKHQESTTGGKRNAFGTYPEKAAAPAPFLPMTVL
UniProt Q9NQB0: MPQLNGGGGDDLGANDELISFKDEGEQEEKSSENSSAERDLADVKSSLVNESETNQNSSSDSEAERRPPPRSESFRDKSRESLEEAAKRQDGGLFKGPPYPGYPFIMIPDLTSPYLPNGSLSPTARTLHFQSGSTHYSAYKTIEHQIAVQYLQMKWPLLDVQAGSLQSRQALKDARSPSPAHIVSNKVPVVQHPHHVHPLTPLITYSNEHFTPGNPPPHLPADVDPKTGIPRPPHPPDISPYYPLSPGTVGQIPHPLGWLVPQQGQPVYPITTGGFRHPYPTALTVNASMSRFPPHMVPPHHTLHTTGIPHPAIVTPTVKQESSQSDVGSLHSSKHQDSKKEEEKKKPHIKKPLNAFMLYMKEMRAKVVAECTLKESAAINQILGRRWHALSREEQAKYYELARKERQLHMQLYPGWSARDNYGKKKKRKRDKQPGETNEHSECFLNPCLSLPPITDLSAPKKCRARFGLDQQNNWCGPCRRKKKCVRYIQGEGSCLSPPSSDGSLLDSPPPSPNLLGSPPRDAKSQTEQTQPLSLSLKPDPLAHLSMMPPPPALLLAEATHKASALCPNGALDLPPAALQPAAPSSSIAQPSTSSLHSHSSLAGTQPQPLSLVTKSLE

No constants are given. Whether binding was seen depends on the method and setting. In cells and extracts the contact can be indirect. Some binding calls cover weakened binding; strength is not graded here.

The target of assay [1] is β-catenin (human (endogenous in HCT8, HCT15 and LoVo)) (UniProt P35222). As to the kind of experiment: co-IP; lysates of 5-FU-R cells (HCT8; HCT15 and LoVo in Fig. S7); anti-β-catenin or anti-HIF-1α antibody covalently immobilised on AminoLink Plus resin (Pierce Co-IP Kit), IgG as negative control; lysis buffer Tris 0.025 M, NaCl 0.15 M, EDTA 0.001 M, NP-40 1%, glycerin 5%; overnight at 4 °C; eluate analysed by Western blotting. (In general: Immunoblotting shows a protein as a band on a membrane.)

The target in assay [2] is hypoxia inducible factor 1α (human (endogenous in HCT8, HCT15 and LoVo)) (UniProt Q16665). Described as above.
The target of assay [3] is β-catenin (human (endogenous in HCT8, HCT15 and LoVo)) (UniProt P35222). As to the kind of experiment: co-IP; lysates of WT cells (HCT8; HCT15 and LoVo in Fig. S7); anti-β-catenin or anti-HIF-1α antibody covalently immobilised on AminoLink Plus resin (Pierce Co-IP Kit), IgG as negative control; lysis buffer Tris 0.025 M, NaCl 0.15 M, EDTA 0.001 M, NP-40 1%, glycerin 5%; overnight at 4 °C; eluate analysed by Western blotting.

Assay [4] concerns the target hypoxia inducible factor 1α (human (endogenous in HCT8, HCT15 and LoVo)) (UniProt Q16665). The description is as above.

As for TCF1 (from UniProt P36402 1-384), the binding entry in assay [1] is given as “binds”; in assay [2], “binds”; in assay [3] it was “no binding (condition: in WT cells (not 5-FU-resistant))”; in assay [4] it was “no binding (condition: in WT cells (not 5-FU-resistant))”.
As to TCF4 (from UniProt Q9NQB0 1-619), the binding entry in assay [2] and in assay [4] was “no binding” in each case.
For “hypoxia inducible factor 1α (from UniProt Q16665 1-826)”, the binding entry in assay [1] and in assay [3] was “binds” each time.
